Results are given in words; binding and its absence hold for the method and conditions named.
Molecular target: T1, a-Dystroglycan peptide Ac-…-NH2 (chart ID 9)
T1 sequence (peptide, N-terminal acetyl; C-terminal amide; no GalNAc): PPTTTTKKP
Assay: Tn glycopeptide microarray, Alexa Fluor 488 goat anti-mouse IgM

B1: BaGs6, murine IgM anti-Tn monoclonal antibody from mouse ascites (antibody, V domains shown)
VH: DTMLQQSDAELVKPGASVKMSCKASGYTFTDHAIHWVKQKPEQGLEWIGYVSPGNGDIKYNEKFKGKATLSADKSSSTAYMQLNSLTSEDSAVYFCKRSYGSFDYWGQGTTLTVSS
VL: QIVLTQSPAIMSSSPGEKVALSCSASSSVSYVYWYQQKPGSSPKPWIYRTSNLASGVPARFSGSGSGTSYSLTISSMEAEDAATYYCQQYHSYPFTFGSGTKLEIKR
  binding: no binding (tested: 1:200 dilution (text paragraph 261))

Reference: patent US20240092935A1
